# Test results as given in the supplement of paper PMC3334620.
# In all, about 33,000 sequences were measured (“E-score (-0.5 to 0.5)”: median about -0.015, highest 2% from about 0.3 on). Some of the results follow.
# Biological target: T1, Abf1 (UniProt P14164)
# T1 sequence: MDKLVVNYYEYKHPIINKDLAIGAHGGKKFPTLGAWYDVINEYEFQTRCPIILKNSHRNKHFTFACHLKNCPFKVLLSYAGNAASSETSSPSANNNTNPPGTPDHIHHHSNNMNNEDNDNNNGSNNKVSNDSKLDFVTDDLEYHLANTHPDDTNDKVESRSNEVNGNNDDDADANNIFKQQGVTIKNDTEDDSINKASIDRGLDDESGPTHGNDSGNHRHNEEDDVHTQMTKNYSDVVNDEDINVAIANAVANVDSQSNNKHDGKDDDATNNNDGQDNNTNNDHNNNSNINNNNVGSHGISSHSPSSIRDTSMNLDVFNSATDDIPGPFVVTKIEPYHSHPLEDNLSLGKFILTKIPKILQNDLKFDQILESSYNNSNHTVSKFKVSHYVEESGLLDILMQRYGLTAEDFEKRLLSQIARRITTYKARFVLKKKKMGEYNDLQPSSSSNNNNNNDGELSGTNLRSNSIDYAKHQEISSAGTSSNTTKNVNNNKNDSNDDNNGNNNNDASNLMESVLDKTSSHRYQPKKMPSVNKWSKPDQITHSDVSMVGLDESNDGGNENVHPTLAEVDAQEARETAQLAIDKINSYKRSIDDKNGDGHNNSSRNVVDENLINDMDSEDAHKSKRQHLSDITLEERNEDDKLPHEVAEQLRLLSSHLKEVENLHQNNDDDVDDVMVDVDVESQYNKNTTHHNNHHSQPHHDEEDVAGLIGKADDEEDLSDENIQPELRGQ
# Assay: PBM E-score (8-mer binding enrichment) (E-score (-0.5 to 0.5)); higher = stronger / more preferred TF binding
# Settings: protein concentration: 200 nM; construct: GST-full length
# Method in brief: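 Universal all-10-mer Agilent arrays, double-stranded by primer extension on fresh or once-stripped slides, were probed with about 100-200 nM GST-tagged yeast transcription factors made by PURExpress. Fluorescent anti-GST detected bound protein, and masliner normalised the scans. E-scores from the Universal PBM Analysis Suite were given to each ungapped eight-base word pooled with its reverse complement.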
row,Sequence,PBM E-score
1,GCGGCCAA,-0.123
2,ATTCCTGG,-0.195
3,GGCTTGTA,-0.0629
4,ACATGGGA,-0.0276
5,AGGCTCCA,-0.282
6,CATATTAG,0.136
7,CCCGTAAA,0.035
8,CACAATTA,0.165
9,ACACGGAC,0.296
10,GACCTTCC,-0.121
11,GACCGGTC,-0.126
12,GTATGTAA,0.132
13,CCGTGAGG,0.00323
14,CGATACTC,0.0987
15,AACGGCCG,-0.0756
16,AGACGTAC,0.244
17,AACCTCTC,-0.269
18,CCCAGGCA,-0.125
19,GGCTGGGA,0.00161
20,CATCCCGA,0.024
21,GCCTCTCA,-0.179
22,GTATAAAA,0.356

row,Sequence,PBM E-score
1,GTAACTTA,0.0598
2,GGTTTCAC,-0.0429
3,TGTTAGAA,-0.052
4,ACACCTAT,-0.0633
5,AGTTCTAT,-0.0806
6,ATGCGGAG,-0.0481
7,ACAACATG,0.0833
8,ACGAGTGA,0.217
9,CTGTTGGC,-0.262
10,TCGTTAGA,0.244
11,TCTTAGCA,-0.236
12,AGTAAGTG,-0.126
13,GGCGCGAA,-0.0951
14,GTGAACAC,-0.00022
15,ATATATTA,0.219
16,AGTGACCA,0.308
17,AAAGGGGA,-0.00295
18,TCCGAACA,-0.148
19,ACACTGTG,-0.164
20,ACACGCAC,-0.0255
21,CGCGCGAC,0.259
22,ATCCGCCC,-0.191

# Some values from the list.
# In PBM E-score, TCTTAGCA is entered as -0.236
# In PBM E-score, TCCGAACA is entered as -0.148
# In PBM E-score, ACACTGTG is entered as -0.164
# In PBM E-score, AGTAAGTG is entered as -0.126

# Next results.

row,Sequence,PBM E-score
1,GACACACA,-0.0457
2,ACGCCACG,0.106
3,CCGCCAGA,-0.00462
4,CAGAAGGG,-0.136
5,GCTACCCC,-0.165
6,CGTACCAC,0.239
7,CAGCAGCC,-0.098
8,ACGGTCAC,0.0626
9,AACACCTA,0.0589
10,CACGCAAC,0.2
11,CCCATGCC,-0.108
12,CTTAGGAC,0.115
13,CCCACGAA,0.316
14,TCCAGTAA,-0.184
15,AGTGTTTG,-0.0678
16,TACTAGCA,0.083
17,CGGCTGAC,-0.0184
18,CTTCTCGC,0.0168
19,AGCTACAC,-0.0645
20,ATCATGAG,0.238
21,GATACCTA,0.179
22,ATTTCGCC,0.0643

row,Sequence,PBM E-score
1,CGTTTCTA,0.00971
2,AGCGAACG,-0.108
3,CGGAGCCG,-0.0539
4,CGGTTGCA,-0.127
5,ACGAATCG,0.189
6,GATACAGA,-0.00729
7,GAAGGTGC,-0.15
8,GTTCTCTA,0.0211
9,CGCTTAGA,-0.223
10,CATGCCAG,-0.203
11,CCAAGATA,0.0521
12,AACTGGCC,-0.0128
13,ACGATGTC,0.225
14,AGCGTTAT,0.0548
15,GATATCTA,0.26
16,CATCGCCA,0.103
17,AAACCCTT,-0.136
18,GATAGGTA,0.0863
19,GCTCGCGA,0.2
20,AATCCTGG,-0.208
